The test has as its target T1, Rad50-HA (Rad50, hemagglutinin-tagged at its native genomic locus) (S. cerevisiae) (UniProt P12753).
T1 sequence: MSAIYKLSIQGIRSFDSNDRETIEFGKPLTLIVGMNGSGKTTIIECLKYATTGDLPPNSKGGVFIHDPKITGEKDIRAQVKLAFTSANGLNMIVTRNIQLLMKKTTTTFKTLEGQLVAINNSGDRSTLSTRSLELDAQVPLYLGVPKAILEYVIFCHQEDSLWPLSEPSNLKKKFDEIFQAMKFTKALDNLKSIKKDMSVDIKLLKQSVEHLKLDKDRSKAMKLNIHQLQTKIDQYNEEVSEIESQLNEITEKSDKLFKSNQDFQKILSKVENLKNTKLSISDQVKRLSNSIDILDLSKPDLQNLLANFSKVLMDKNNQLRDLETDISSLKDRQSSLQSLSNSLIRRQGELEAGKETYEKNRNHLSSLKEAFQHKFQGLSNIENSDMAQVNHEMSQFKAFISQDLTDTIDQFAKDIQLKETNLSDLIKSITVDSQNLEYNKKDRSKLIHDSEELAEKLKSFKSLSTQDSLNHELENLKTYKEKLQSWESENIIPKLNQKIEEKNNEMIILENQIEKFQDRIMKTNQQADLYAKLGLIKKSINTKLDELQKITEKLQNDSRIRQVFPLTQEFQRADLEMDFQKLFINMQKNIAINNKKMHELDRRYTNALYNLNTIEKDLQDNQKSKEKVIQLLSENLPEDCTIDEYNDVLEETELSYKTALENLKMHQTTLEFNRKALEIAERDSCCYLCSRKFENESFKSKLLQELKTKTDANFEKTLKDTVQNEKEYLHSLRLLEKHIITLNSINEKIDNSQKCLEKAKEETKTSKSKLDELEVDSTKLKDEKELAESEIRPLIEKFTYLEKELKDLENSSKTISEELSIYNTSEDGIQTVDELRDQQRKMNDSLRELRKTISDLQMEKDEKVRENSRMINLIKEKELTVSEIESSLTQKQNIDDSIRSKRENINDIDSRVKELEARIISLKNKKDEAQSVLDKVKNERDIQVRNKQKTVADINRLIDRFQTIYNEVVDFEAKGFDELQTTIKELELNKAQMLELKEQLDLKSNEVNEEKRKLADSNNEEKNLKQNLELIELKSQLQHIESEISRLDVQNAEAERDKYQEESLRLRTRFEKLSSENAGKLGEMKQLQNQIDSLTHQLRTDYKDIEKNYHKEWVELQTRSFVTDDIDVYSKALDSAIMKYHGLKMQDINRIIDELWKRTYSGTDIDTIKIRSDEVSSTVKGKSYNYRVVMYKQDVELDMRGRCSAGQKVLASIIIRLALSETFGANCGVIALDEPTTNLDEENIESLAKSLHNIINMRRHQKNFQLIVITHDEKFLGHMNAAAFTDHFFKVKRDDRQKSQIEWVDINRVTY
Nature of the test: co-IP; Rad50-HA immunoprecipitated with anti-HA (12CA5) and Protein G-Dynabeads from total yeast protein extracts, 2 h at 4°C; 50 mM HEPES pH 7.5, 140 mM NaCl, 1 mM EDTA, 10% glycerol; blot with anti-Myc (9E10).

The chains behind the UniProt entries cited, without tags or fusion partners. Where a name states a change or a piece, a line headed by the entry shows the natural chain unless it says otherwise.
UniProt Q06208, whole entry, looked up, stated change not applied: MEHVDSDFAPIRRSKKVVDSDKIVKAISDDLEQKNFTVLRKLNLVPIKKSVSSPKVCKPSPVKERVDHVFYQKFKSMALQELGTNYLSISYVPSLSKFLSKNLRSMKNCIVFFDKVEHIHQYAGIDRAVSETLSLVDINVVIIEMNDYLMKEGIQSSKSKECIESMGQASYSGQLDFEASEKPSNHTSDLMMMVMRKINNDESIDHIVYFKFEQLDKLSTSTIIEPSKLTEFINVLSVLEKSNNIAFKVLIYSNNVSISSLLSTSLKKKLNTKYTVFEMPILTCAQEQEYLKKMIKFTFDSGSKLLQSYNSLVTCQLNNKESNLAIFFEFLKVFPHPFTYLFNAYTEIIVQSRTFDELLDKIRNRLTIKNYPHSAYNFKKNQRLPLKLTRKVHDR

Results are given in words; binding and its absence hold for the method and conditions named. Binding seen in cells or lysates may run through a third protein. Some entries that bind do so weakly or less than the wild type. Where a sequence is shown, tags or fusion partners need not be part of it.

B1: Rif2^S6E-Myc (Rif2 S6E, epitope-tagged at its native genomic locus) (protein, UniProt Q06208 1-395)
chain: MEHVDEDFAPIRRSKKVVDSDKIVKAISDDLEQKNFTVLRKLNLVPIKKSVSSPKVCKPSPVKERVDHVFYQKFKSMALQELGTNYLSISYVPSLSKFLSKNLRSMKNCIVFFDKVEHIHQYAGIDRAVSETLSLVDINVVIIEMNDYLMKEGIQSSKSKECIESMGQASYSGQLDFEASEKPSNHTSDLMMMVMRKINNDESIDHIVYFKFEQLDKLSTSTIIEPSKLTEFINVLSVLEKSNNIAFKVLIYSNNVSISSLLSTSLKKKLNTKYTVFEMPILTCAQEQEYLKKMIKFTFDSGSKLLQSYNSLVTCQLNNKESNLAIFFEFLKVFPHPFTYLFNAYTEIIVQSRTFDELLDKIRNRLTIKNYPHSAYNFKKNQRLPLKLTRKVHDR
Turning to B1, the binding result is on record as “binds”.

(Values after PMC10954470.)
